± gives the standard deviation of the averaged measurements. Small differences around the control level are noise.
Tests used:
Experiment in all cases: level (log10 ratio to DMSO vehicle control); higher = higher biomarker level / cell amount than vehicle control
[1] = compound: CCOC(=O)CC(=O)C(F)(F)C(F)(F)F [Ethyl pentafluoropropionyl acetate]; conditions: 2200 nM; in DMSO
Description: (§1)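 BioMAP Diversity Plus panel of 12 human primary cell co-culture systems (3C, 4H, LPS, SAg, BT, BF4T, BE3C, CASM3C, HDF3CGF, KF3CT, MyoF, Mphg). Compounds were added 1 h before stimulation and left for 24 h (MyoF 48 h; BT 72 h for soluble read-outs or 6 d for IgG). Biomarkers were read by ELISA, cytotoxicity by SRB, PBMC viability and proliferation by Alamar Blue. Each well value was divided by the mean of 8 DMSO control wells on the same plate and log10 transformed; duplicate blinded samples were tested at 4 concentrations.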

[2] = compound: O=C(CC(=O)C(F)(F)C(F)(F)C(F)(F)F)c1cccs1 [(Perfluorobutyryl)-2-thenoylmethane]; conditions: 2200 nM; in DMSO
Description: as §1

[3] = compound: FC(F)(F)C(F)(F)C(F)(F)C(F)(F)C(F)(F)C(F)(F)C(F)(F)C(F)(F)CCS [2-(Perfluorooctyl)ethanthiol]; conditions: in DMSO
Description: as §1

[4] = compound: O=C(O)C(F)(F)OC(F)(F)C(F)(F)OC(F)(F)C(F)(F)OC(F)(F)C(F)(F)C(F)(F)C(F)(F)F [Perfluoro-3,6,9-trioxatridecanoic acid]; conditions: 2200 nM; in DMSO
Description: as §1

[5] = compound: N=C(N)C(F)(F)C(F)(F)C(F)(F)C(F)(F)C(F)(F)C(F)(F)C(F)(F)F [Perfluorooctanamidine]; conditions: in DMSO
Description: as §1

[6] = compound: O=C(O)C(F)(F)C(F)(F)C(F)(F)C(F)(F)C(F)(F)C(F)(F)C(F)(F)C(F)(F)C(F)(F)F [Perfluorodecanoic acid]; conditions: in DMSO
Description: as §1

[7] = compound: C=CC(=O)OCC(F)(F)C(F)(F)C(F)(F)C(F)(F)C(F)(F)C(F)(F)C(F)(F)C(F)F [1H,1H,9H-Perfluorononyl acrylate]; conditions: 2200 nM; in DMSO
Description: as §1

[8] = compound: OCC(F)(F)C(F)(F)C(F)(F)C(F)(F)C(F)(F)C(F)(F)C(F)(F)C(F)(F)CO [1H,1H,10H,10H-Perfluorodecane-1,10-diol]; conditions: 2200 nM; in DMSO
Description: as §1

[9] = compound: O=C(O)CCC(F)(C(F)(F)F)C(F)(F)F [4,4-bis(Trifluoromethyl)-4-fluoropropanoic acid]; conditions: 2200 nM; in DMSO
Description: as §1

[10] = compound: O=C(O)C(F)(F)C(F)(F)C(F)(F)C(F)(F)C(F)(F)C(F)(F)C(F)(F)C(F)(F)F [Perfluorononanoic acid]; conditions: 2200 nM; in DMSO
Description: as §1

[11] = compound: O=C(O)C(F)(F)C(F)(F)C(F)(F)C(F)(F)C(F)(F)C(F)(F)C(F)(F)F [Perfluorooctanoic acid]; conditions: 2200 nM; in DMSO
Description: as §1

[12] = compound: O=C(O)C(F)(F)OC(F)(F)C(F)(F)OC(F)(F)F [Perfluoro-3,6-dioxaheptanoic acid]; conditions: 2200 nM; in DMSO
Description: as §1

[13] = compound: O=C(O)C(F)(F)C(F)(F)C(F)(F)C(F)(F)C(F)(F)C(F)(F)C(F)(F)F [Ammonium perfluorooctanoate]; conditions: 2200 nM; in DMSO
Description: as §1

[14] = compound: OCC(F)(F)OC(F)(F)C(F)(F)OC(F)(F)C(F)(F)OC(F)(F)CO [1H,1H,11H,11H-Perfluorotetraethylene glycol]; conditions: 2200 nM; in DMSO
Description: as §1

Row | Test System | level (log10) [1] | level (log10) [2] | level (log10) ([3]; 740 nM) | level (log10) ([3]; 2200 nM) | level (log10) [4] | level (log10) ([5]; 2200 nM) | level (log10) ([5]; 6700 nM) | level (log10) ([5]; 20000 nM) | level (log10) ([5]; 60000 nM) | level (log10) ([6]; 2200 nM) | level (log10) ([6]; 6700 nM) | level (log10) ([6]; 20000 nM) | level (log10) [7] | level (log10) [8] | level (log10) [9] | level (log10) [10] | level (log10) [11] | level (log10) [12] | level (log10) [13] | level (log10) [14]
1 | 3C:CD141/Thrombomodulin | 0.005 ± 0.038 | 0.0115 ± 0.029 | -0.021 ± 0.034 | 0.004 ± 0.0014 | 0.008 ± 0.0014 | -0.006 ± 0.023 | -0.015 ± 0.031 | -0.021 ± 0.024 | -0.013 | -0.024 ± 0.034 | -0.019 ± 0.025 | -0.0445 ± 0.012 | -0.0315 ± 0.044 | -0.0205 ± 0.016 | 0.0035 ± 0.064 | -0.042 ± 0.024 | 0.0305 ± 0.046 | -0.014 ± 0.031 | 0.0085 ± 0.005 | -0.021 ± 0.033
2 | KF3CT:TIMP-2 | 0.001 ± 0.048 | 0.0005 ± 0.013 | -0.021 ± 0.0042 | 0.002 ± 0.047 | 0.01 ± 0.023 | -0.004 ± 0.0071 | 0.01 ± 0.0014 | 0 ± 0.02 | 0.035 | -0.034 ± 0.034 | 0.003 ± 0.03 | -0.051 ± 0.034 | -0.0105 ± 0.044 | -0.004 ± 0.025 | -0.0165 ± 0.033 | -0.0395 ± 0.025 | 0.007 ± 0.028 | -0.05 ± 0.079 | 0.0015 ± 0.016 | 0.0135 ± 0.032
3 | CASM3C:Proliferation | 0.0035 ± 0.1 | -0.0975 ± 0.037 | 0.0165 ± 0.022 | 0.0075 ± 0.032 | -0.0165 ± 0.013 | 0.0015 ± 0.0092 | 0.0185 ± 0.0078 | 0.0085 ± 0.0035 | -0.062 | 0.0345 ± 0.035 | 0.049 ± 0.0028 | 0.0205 ± 0.035 | 0.011 ± 0.054 | -0.0515 ± 0.029 | -0.0185 ± 0.036 | 0.026 ± 0.0099 | -0.001 ± 0.023 | -0.01 ± 0.051 | -0.0385 ± 0.0035 | -0.0775 ± 0.087
4 | BE3C:SRB | -0.0015 ± 0.0021 | -0.0035 ± 0.00071 | 0.005 ± 0.0028 | 0.006 ± 0.0085 | -0.003 ± 0.0085 | 0.01 ± 0.024 | -0.0075 ± 0.005 | -0.001 ± 0.016 | 0.009 | -0.003 ± 0.0057 | -0.0245 ± 0.005 | -0.664 ± 0.021 | -0.0015 ± 0.00071 | 0.002 ± 0.0014 | 0.0115 ± 0.026 | 0.008 ± 0.011 | 0.007 ± 0.018 | 0.0045 ± 0.015 | -0.0085 ± 0.005 | 0 ± 0.0028
5 | BT:PBMC Cytotoxicity | -0.0145 ± 0.035 | 0.028 ± 0.02 | 0.026 ± 0.021 | 0.0265 ± 0.005 | 0.034 ± 0.038 | 0.008 ± 0.028 | 0.005 | 0 ± 0.031 | 0.006 | 0.034 ± 0.0071 | 0.0195 ± 0.023 | 0.045 ± 0.045 | -0.022 ± 0.023 | 0.0015 ± 0.037 | 0.0175 ± 0.005 | 0.0025 ± 0.023 | 0.031 ± 0.013 | -0.004 ± 0.025 | -0.009 ± 0.067 | -0.005 ± 0.021
6 | LPS:CD142/Tissue Factor | -0.0215 ± 0.043 | 0.025 ± 0.037 | -0.0485 ± 0.14 | 0.0325 ± 0.0035 | 0.006 ± 0.038 | -0.0025 ± 0.046 | -0.008 ± 0.037 | 0.0055 ± 0.033 | -0.071 | 0 ± 0.0071 | 0.018 ± 0.0085 | -0.011 ± 0.0028 | 0.013 ± 0.0014 | -0.017 ± 0.025 | 0.038 ± 0.0014 | -0.0025 ± 0.016 | 0.0465 ± 0.025 | -0.0145 ± 0.011 | 0.008 ± 0.0028 | 0.0245 ± 0.022

From the supplement of paper PMC10331698
